PubChem BioAssay AID652243 – Drosophila RNAi Screening Center | 2013
In all, the deposit lists about 24,000 reagents; this is an unselected part of those with a known target gene and a result. In the full data, 246 (1%) got an active call. 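Plates not normalised; calls are printed but the firefly/Renilla ratio behind them is not deposited; fold cut for lowering reported inconsistently.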 Raw values vary from plate to plate and are shown uncorrected. Names joined by + are all predicted targets of the reagent. Reagent sequences are not shown. Not given: the amount of reagent.

Screen: 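Knock-downs that decrease or increase androgen receptor reporter signal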 (primary screen)
Cells: Drosophila S2R+ cells
Knock-down reagent: long dsRNA against Drosophila genes
Time to read-out: 72 h (48 h, then 24 h hormone)
Challenge: synthetic androgen R1881 at 10 nM for 24 h
Read-out: 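Firefly light from an androgen-responsive reporter and Renilla control light per well, raw and unnormalised, for each of two replicates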
Reading the numbers: firefly reporter light: higher = more light from androgen-responsive reporter; Renilla control light: higher = more constitutive control signal (cell number, transfection)
Active means: 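Across duplicate plates, a knock-down whose log firefly/Renilla ratio shifted a set fold down or up from the GFP/LacZ control mean was a hit; the downward cut appears as both 1.5 and 3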
Calls: active = hit: reporter lowered or raised; inactive = no hit

no.	target gene	dsRNA	firefly reporter light, replicate 1	firefly reporter light, replicate 2	Renilla control light, replicate 1	Renilla control light, replicate 2	activity call
1	Sap-r (Saposin-related)	DRSC16849	4.24e5	3.68e5	3.20e6	3.65e6	inactive
2	Sap-r (Saposin-related)	DRSC21916	5.91e5	7.16e5	1.64e5	1.92e5	inactive
3	Sap-r (Saposin-related)	DRSC27246	3.25e5	4.23e5	6.91e5	6.86e5	inactive
4	CG7579	DRSC10885	2.55e5	2.02e5	2.46e6	1.82e6	inactive
5	Tpt (tRNA 2'-phosphotransferase)	DRSC27217	2.60e5	2.78e5	5.48e5	6.11e5	inactive
6	CG8170	DRSC07087	1.78e5	1.99e5	2.09e6	1.53e6	inactive
7	Mhcl (Myosin heavy chain-like)	DRSC13130	2.51e5	2.01e5	3.16e5	4.73e5	inactive
8	Mhcl (Myosin heavy chain-like)	DRSC14216	55138	59684	1.37e6	1.69e6	active
9	Mhcl (Myosin heavy chain-like)	DRSC16753	1.25e5	1.05e5	2.14e6	1.96e6	inactive
10	Smn (survival motor neuron)	DRSC10223	38956	44826	4.21e5	4.21e5	inactive
11	CG17264	DRSC00500	3.99e5	4.92e5	1.68e6	1.11e6	inactive
12	CG17264	DRSC29452	2.91e5	4.46e5	7.96e5	7.96e5	inactive
13	Bmcp	DRSC10808	6.95e5	5.61e5	1.05e6	9.09e5	inactive
14	RpL10Ab (Ribosomal protein L10Ab)	DRSC10798	2.13e5	1.97e5	1.98e6	1.54e6	inactive
15	RpL10Ab (Ribosomal protein L10Ab)	DRSC26988	2.51e5	2.28e5	5.19e5	4.69e5	inactive
16	CG11298	DRSC04100	1.04e5	1.61e5	1.23e6	1.74e6	inactive
17	GstE11 (Glutathione S transferase E11)	DRSC06926	6.58e5	4.30e5	9.86e5	8.47e5	inactive
18	CG17118	DRSC02579	1.69e5	1.45e5	9.33e5	1.03e6	inactive
19	elav (embryonic lethal abnormal vision)	DRSC18772	51471	47995	6.39e5	3.00e5	inactive
20	tra2 (transformer 2)	DRSC07708	9.71e5	6.31e5	2.01e6	1.77e6	inactive
21	tra2 (transformer 2)	DRSC29704	4.66e5	3.62e5	1.24e6	1.53e6	inactive
22	CG18368	DRSC06731	65620	86374	1.46e6	1.46e6	inactive
23	CG14115	DRSC10118	2.71e5	2.30e5	2.25e6	2.19e6	inactive
24	vig2	DRSC14402	72738	59720	7.46e5	4.69e5	inactive
25	vig2	DRSC30012	3.92e5	4.10e5	9.74e5	1.13e6	inactive
26	CG8834	DRSC07283	2.26e5	1.46e5	1.97e6	1.55e6	inactive
27	Sytbeta (Synaptotagmin beta)	DRSC10009	1.56e5	2.21e5	2.95e6	2.46e6	inactive
28	Sytbeta (Synaptotagmin beta)	DRSC10351	1.79e5	1.43e5	1.98e6	1.78e6	inactive
29	CG14929 + CG14930	DRSC02412	3.68e5	1.82e5	2.11e6	1.42e6	inactive
30	BaraB (Baramicin B)	DRSC06420	4.02e5	3.41e5	2.57e6	2.42e6	inactive
31	CG3494	DRSC04375	2.23e5	1.87e5	1.61e6	1.13e6	inactive
32	CG3494	DRSC36880					inactive
33	CG12725	DRSC19501	5.61e5	5.64e5	3.34e6	4.36e6	inactive
34	CG12725	DRSC24026	1.01e6	1.04e6	1.07e6	9.81e5	inactive
35	PolA2 (DNA polymerase alpha subunit 2)	DRSC16641	1.09e5	92688	1.92e6	1.85e6	inactive
36	Prp6 (pre-mRNA processing factor 6)	DRSC10724	3.96e5	2.79e5	3.18e6	2.93e6	inactive
37	Prp6 (pre-mRNA processing factor 6)	DRSC21773	4.27e5	3.84e5	1.67e6	1.87e6	inactive
38	CG30496	DRSC06805	1.44e6	1.27e6	1.88e6	1.72e6	inactive
39	CG14013	DRSC02344	34035	50910	5.60e5	5.47e5	inactive
40	HipHop (HP1-HOAP-interacting protein)	DRSC10734	44824	45398	4.21e5	3.08e5	inactive
41	CG4629	DRSC00659	1.67e5	1.26e5	1.14e6	1.12e6	inactive
42	CG4629	DRSC27952	9.26e5	4.02e5	2.10e6	9.57e5	inactive
43	CG4629	DRSC37049					inactive
44	pic (piccolo)	DRSC16639	55906	82397	4.06e5	5.02e5	inactive
45	CG13230	DRSC06350	4.38e5	2.66e5	1.80e6	1.92e6	inactive
46	CG13230	DRSC26778	4.52e5	3.13e5	7.57e5	3.92e5	inactive
47	Plekhm1 (Pleckstrin homology and RUN domain containing M1)	DRSC04527	1.60e5	1.95e5	1.32e6	1.08e6	inactive
48	Ir67a (Ionotropic receptor 67a)	DRSC09897	53305	2.09e5	1.77e6	1.52e6	inactive
49	CG4991	DRSC19928	1.50e5	1.25e5	6.30e5	6.53e5	inactive
50	Tmem214 (Transmembrane protein 214)	DRSC02924	2.06e5	2.72e5	1.48e6	1.58e6	inactive
51	Tmem214 (Transmembrane protein 214)	DRSC02925	2.24e5	1.47e5	1.78e6	1.60e6	inactive
52	Tmem214 (Transmembrane protein 214)	DRSC28172	3.70e5	4.08e5	1.01e6	9.83e5	inactive
53	lncRNA:sphinx (long non-coding RNA:sphinx)	DRSC17199	2.32e5	3.05e5	3.26e6	3.57e6	inactive
54	CG10748	DRSC09797	1.90e5	1.96e5	2.41e6	1.83e6	inactive
55	CenG1A (Centaurin gamma 1A)	DRSC02538	2.47e5	2.47e5	1.94e6	2.20e6	inactive
56	CenG1A (Centaurin gamma 1A)	DRSC03505	2.96e5	2.70e5	2.65e6	2.37e6	inactive
57	CenG1A (Centaurin gamma 1A)	DRSC03506	1.69e5	2.00e5	1.29e6	1.61e6	inactive
58	CenG1A (Centaurin gamma 1A)	DRSC28029	7.58e5	4.35e5	1.90e6	1.58e6	inactive
59	eIF4A (eukaryotic translation initiation factor 4A)	DRSC03526	1.12e5	88421	6.67e5	3.67e5	inactive
60	eIF4A (eukaryotic translation initiation factor 4A)	DRSC26043	2.14e5	2.20e5	2.34e5	2.28e5	inactive
61	kl-2 (male fertility factor kl2)	DRSC21136	2.01e5	2.67e5	5.99e5	5.09e5	inactive
62	kl-2 (male fertility factor kl2)	DRSC37780	1.02e6	8.37e5	2.23e6	2.16e6	inactive
63	yellow-h	DRSC17141	3.38e5	3.17e5	8.72e5	1.91e6	inactive
64	CG10011	DRSC14174	1.10e5	83034	6.32e5	3.75e5	inactive
65	CG46491	DRSC06565	6.78e5	5.13e5	5.28e5	3.94e5	inactive
66	CG46491	DRSC06566	69474	1.07e5	1.38e6	1.38e6	inactive
67	CG13248	DRSC11696	3.72e5	2.47e5	3.03e6	2.30e6	inactive
68	CG13248	DRSC24446	8.58e5	9.34e5	1.10e6	8.07e5	inactive
69	CG11629	DRSC03695	1.75e5	2.36e5	9.66e5	1.39e6	inactive
70	CG17378	DRSC02616	1.74e5	2.20e5	1.46e6	1.51e6	inactive
71	Sarm (Sterile alpha and Armadillo motif)	DRSC08906	1.09e6	1.06e6	1.54e6	9.64e5	inactive
72	Sarm (Sterile alpha and Armadillo motif)	DRSC08907	7.25e5	9.30e5	1.12e6	1.22e6	inactive
73	Sarm (Sterile alpha and Armadillo motif)	DRSC10038	3.57e5	3.12e5	3.41e6	2.72e6	inactive
74	Sarm (Sterile alpha and Armadillo motif)	DRSC10039	2.03e5	1.07e5	2.90e6	8.89e5	inactive
75	Sarm (Sterile alpha and Armadillo motif)	DRSC10927	2.01e5	2.67e5	1.98e6	2.05e6	inactive
76	Sarm (Sterile alpha and Armadillo motif)	DRSC10929	4.59e5	5.78e5	1.01e6	1.22e6	inactive
77	Sarm (Sterile alpha and Armadillo motif)	DRSC27924	4.31e5	3.97e5	1.49e6	1.08e6	inactive

Not a retest: an excerpt of the list.
no.	target gene	dsRNA	firefly reporter light, replicate 1	firefly reporter light, replicate 2	Renilla control light, replicate 1	Renilla control light, replicate 2	activity call
34	CG12725	DRSC24026	1.01e6	1.04e6	1.07e6	9.81e5	inactive
35	PolA2 (DNA polymerase alpha subunit 2)	DRSC16641	1.09e5	92688	1.92e6	1.85e6	inactive
36	Prp6 (pre-mRNA processing factor 6)	DRSC10724	3.96e5	2.79e5	3.18e6	2.93e6	inactive
37	Prp6 (pre-mRNA processing factor 6)	DRSC21773	4.27e5	3.84e5	1.67e6	1.87e6	inactive
38	CG30496	DRSC06805	1.44e6	1.27e6	1.88e6	1.72e6	inactive
39	CG14013	DRSC02344	34035	50910	5.60e5	5.47e5	inactive
